# Reference: US20110287059A1, “HONEY ANALYSIS” (COMVITA NEW ZEALAND LIMITED, priority 2008, published 2011)
# At least one structure is not confirmed: it was looked up by name or label, or the drawing left a doubt.
# Assay: Antioxidant activity by ABTS radical assay (Trolox Equivalent Antioxidant Capacity)
# Assay type: biochemical
# Details: standard, 210 mg/kg
# Description: Antioxidant activity was determined by the ABTS assay using a spectrophotometric method for antioxidant activity using the ABTS radical assay (expressed as Trolox Equivalent Antioxidant Capacity) based on the method of Miller & Rice-Evans (Miller, N.J.; Rice-Evans, C.A. 1997: Factors influencing the antioxidant activity determined by the ABTS+radical cation assay. Free Radical Research 26(3): 195-199). All samples were diluted with warm water as required to bring into the appropriate range for the assay.
compound,measurement,value
O=C(O)C(O)Cc1ccccc1 (stereo not shown) [phenyllactic acid],"Antioxidant Activity by ABTS Assay, Average",54.6 μmole TEAC/100 g
